Measurements reported in PubChem BioAssay AID504786 (Drosophila RNAi Screening Center, 2011)

Purpose: 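Positive regulators of HIF-driven reporter output in Drosophila cells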 (primary screen)
System: Drosophila S2 cells with a stable HIF luciferase reporter
Reagent: long dsRNA against Drosophila genes, about 0.2 µg dsRNA per well of a 384-well plate
Duration: three days of knock-down, then 20 h of DFO before reading
Challenge: desferrioxamine (DFO) at 100 µM, an iron chelator that mimics hypoxia, for 20 h
Detection: 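Firefly luciferase driven by the mouse ldh-a hypoxia-response element, measured after 20 h of 100 µM DFO; z-scores per plate, higher means more signal lost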
Reading the numbers: z-score: higher = stronger loss of HIF reporter signal
In all, the deposit lists about 21,000 reagents; this is an unselected part of those with a known target gene and a result. 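Primary screen; positive scores mean lost reporter signal, so the sign may be inverted from the usual convention.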 Reagents against one gene are numbered here. Names joined by + are all predicted targets of the reagent. Further read-outs or replicates are left out here. Reagent sequences are not shown.

predicted target,reagent,"z-score, replicate 1"
CG17097 (GeneID 34461),1,0
Nlg4 (GeneID 42402),1,0.4
Nlg4 (GeneID 42402),2,0.4
Nlg4 (GeneID 42402),3,-0.1
Nlg4 (GeneID 42402),4,4
mRpL13 (GeneID 35145),1,1.1
Mvb12 (GeneID 32791),1,-0.3
CG2681 (GeneID 31258),1,-0.2
wac (GeneID 38044),1,0
Eph (GeneID 43803),1,-0.2
Nle (GeneID 33234),1,-0.3
Polr3I (GeneID 32678),1,0.2
CG31855 (GeneID 318983),1,-0.2
CG33791 + CG18170,1,-0.4
CG33791 + CG18170,2,-0.3
CG1575 (GeneID 31731),1,-0.3
Dis3l2 (GeneID 38034),1,-0.2
alpha-Man-Ib (GeneID 43436),1,-0.1
Sirt7 (GeneID 43433),1,-0.1
CG8838 (GeneID 33551),1,-0.2
Polr2E (GeneID 36160),1,5.8
BoYb (GeneID 40512),1,-0.3
CG17065 (GeneID 33026),1,0.7
vis + achi,1,-0.2
CG14634 (GeneID 50366),1,-0.2

Next part (4 carried over from the part before).
predicted target,reagent,"z-score, replicate 1"
BoYb (GeneID 40512),1,-0.3
CG17065 (GeneID 33026),1,0.7
vis + achi,1,-0.2
CG14634 (GeneID 50366),1,-0.2
Arp8 (GeneID 32769),1,-0.3
CG33992 (retired record) + CG43755,1,-0.5
sip3 (GeneID 43747),1,-0.4
CG7309 (GeneID 34509),1,-0.3
CG31743 + CG34313,1,-0.2
CG31743 + CG34313,2,0
CG32022 (GeneID 317826),1,-0.2
Coq4 + Gorab + frc,1,-0.2
en (GeneID 36240),1,-0.1
CG5597 (GeneID 37789),1,0.1
CG14259 (GeneID 43261),1,-0.4
CG14190 (GeneID 32891),1,-0.1
rswl (GeneID 37124),1,-0.3
Tsp96F (GeneID 43127),1,-0.3
CG2577 (GeneID 32188),1,-0.2
Aef1 (GeneID 40370),1,-0.4
betaTub56D (GeneID 37238),1,0.8
Vamp7 (GeneID 36015),1,-0.2
Balat (GeneID 36417),1,-0.3
CG32241 (GeneID 317934),1,-0.4
CG1827 (GeneID 35989),1,-0.3
CG11977 (GeneID 41076),1,-0.3
Dh44-R1 (GeneID 36601),1,-0.3
Pka-R2 (GeneID 36041),1,-0.2
NijB (GeneID 40057),1,-0.9
CG1304 (GeneID 33074),1,-0.2
CG17470 (GeneID 35321),1,-0.3
Mrm2 (GeneID 42359),1,-0.7
Septin2 (GeneID 42438),1,-0.3
Ns4 (GeneID 35338),1,-0.3
Sin3A (GeneID 36382),1,0.2
